Results as given in PubChem BioAssay AID2685 (National Center for Advancing Translational Sciences (NCATS), 2010).
Some of the results follow. These are further read-outs of the screen, such as a control signal, another cell line or another target. No call is given for them. Most of these compounds were active or inconclusive in the main read-out, so they are no random draw. Potencies come from curve fits of mixed quality, noted in brackets.

Assay: qHTS Assay for Lipid Storage Modulators in Drosophila S3 Cells;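 on cell number change: cells counted by Cell Tracker Red CMTPX staining in the red channel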
Settings: BODIPY lipid droplet fluorescence, 18-24 h; for cell number change: measured here: cell count max response, cells fed with added oleic acid
Summary of the method: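 Laser-scanning cytometry quantifies lipid droplet accumulation (500–530 nm total intensity; droplet/cell object ratio) in oleic acid-fed (400 uM added) Drosophila S3 cells treated with a concentration series. 20 uM Triacsin C defined 100% inhibition.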

[1] = measured here: lipid fluorescence (Fed channel) AC50, cells fed with added oleic acid
[2] = measured here: cell number channel AC50, cells fed with added oleic acid

| Compound | cell number change [%] | AC50 [1] | AC50 [2] |
| --- | --- | --- | --- |
| O=c1c2ccccc2[nH]c(=S)n1C1CCCCC1 | -26 | – | – |
| CCCn1c(COc2ccc(C(=O)O)cc2)nc2ccccc21 | 14.1 | 29.1 µM [rising, single point] | – |
| Oc1ccc(-c2[nH]ncc2-c2cccc3cccnc23)c(O)c1 | -12.5 | 2.06 µM [rising, full curve] | – |
| O=S(=O)(NC1CCCC1)c1cccc(-c2nnc(-c3ccccc3)o2)c1 | – | 0.259 µM [rising, full curve] | 0.13 µM [rising, full curve, poor fit] |
| CC(=O)Nc1c(N)c2ccccc2oc1=O | 7.04 | – | – |
| CN(C)c1ccnc(-n2cccc2/C=N/OCc2cccc(F)c2)c1C#N | 182 | 9.2 µM [rising, partial curve] | 8.2 µM [rising, partial curve] |
| O=C(Oc1cccc(NC(=O)c2ccco2)c1)c1ccc(Br)c(S(=O)(=O)N2CCCCC2)c1 | -11.4 | – | – |
| CCOC(=O)CCNC(=O)c1ccccc1Br | -2.93 | – | – |
| COc1ccc(N=C2S/C(=C\c3ccc(N4CCOCC4)o3)C(=O)N2CCc2c[nH]c3ccccc23)cc1 | -41.9 | 20.6 µM [falling, partial curve] | 32.6 µM [falling, partial curve, poor fit] |
| COc1ccc(CN2CCN(C(=O)c3ccc(S(=O)(=O)NCc4ccco4)cc3)CC2)cc1 | -70.1 | – | 20.6 µM [falling, single point] |
| O=C(NCCC1CCCCN1S(=O)(=O)c1ccccc1)C(=O)NCc1cccnc1 (stereo not drawn) | 1.75 | 5.8 µM [falling, full curve, poor fit] | – |
| Nc1nnc(Cc2ccc(F)cc2)s1 | 1.35 | – | – |
| COc1cc(C(=O)NCCc2ccc(S(N)(=O)=O)cc2)ccc1OCc1c(C)noc1C | -1.78 | 3.66 µM [falling, partial curve] | 3.66 µM [falling, single point] |
| C/C(=N\NC(=O)COc1ccccc1F)c1cc2ccccc2o1 | -10 | 2.31 µM [rising, partial curve] | 2.31 µM [rising, single point] |
| COc1cc(-c2nnc(CSc3nc4ccccc4s3)o2)cc(OC)c1OC | -16.3 | – | – |
| Cc1[nH]nc(Nc2ccc(C(C)C)cc2)c1[N+](=O)[O-] | 5.12 | 0.411 µM [rising, full curve] | – |
| Cc1nc(-c2ccccc2)cn2c1nc1ccccc12 | -18.2 | 8.2 µM [falling, partial curve] | 0.103 µM [falling, full curve, poor fit] |
| CNc1ccccc(-c2ccc3cc4c(cc3n2)OCO4)c1=O | 22.1 | 7.31 µM [rising, partial curve] | – |
| Cc1cccc(C)c1NC(=O)COC(=O)C1CC(=O)N(Cc2ccccc2)C1 (stereo not drawn) | – | 0.058 µM [rising, partial curve, poor fit] | 0.0517 µM [rising, full curve, poor fit] |
| COc1cccc(C2=NOC(C(=O)Nc3ccc4c(c3)OCO4)C2)c1OC (stereo not drawn) | 9.01 | – | 1.84 µM [rising, partial curve, poor fit] |

Filtered by structure: the compounds so far containing bromine.

| Compound | cell number change [%] | AC50 [1] | AC50 [2] |
| --- | --- | --- | --- |
| O=C(Oc1cccc(NC(=O)c2ccco2)c1)c1ccc(Br)c(S(=O)(=O)N2CCCCC2)c1 | -11.4 | – | – |
| CCOC(=O)CCNC(=O)c1ccccc1Br | -2.93 | – | – |

Remaining list, next part

| Compound | cell number change [%] | AC50 [1] | AC50 [2] |
| --- | --- | --- | --- |
| Cc1ccc2c(c1)C1(C(=O)N2C)N2CC3(C)CN1CC(C)(C2)C3=O (stereo not drawn) | 30.3 | 29.1 µM [rising, single point] | 13 µM [rising, single point] |
| COc1ccc(S(=O)(=O)NCc2ccncc2)cc1NC(=O)c1ccc(Cl)cc1 | – | – | 2.06 µM [rising, partial curve] |
| CCOC(=O)c1c(C)n(CCNC(C)=O)c2ccc(O)cc12 | – | – | 2.31 µM [rising, partial curve] |
| Cc1nnc(SCc2ccccc2Cl)n1CC1CCCO1 (stereo not drawn) | -30.2 | 25.9 µM [falling, single point] | – |
| Cc1onc(-c2ccccc2Cl)c1C(=O)N1CCCCC1C (stereo not drawn) | 17.9 | – | – |
| Cc1cc(NC(=O)c2ccccc2)n(C(C)(C)C)n1 | -46.9 | 29.1 µM [falling, single point] | 29.1 µM [falling, single point] |
| O=c1c2ccccc2sn1-c1ccccc1 | -88.1 | 25.9 µM [falling, single point] | 3.66 µM [falling, full curve, poor fit] |
| O=S(=O)(c1ccc(Cl)cc1)N1CCN=C1SCc1cccc(Cl)c1 | 29.5 | 16.4 µM [rising, partial curve] | – |
| O=C(O)/C=C/C(=O)N1CCN(c2ccc(F)cc2)CC1 | -21.9 | 1.84 µM [falling, partial curve] | – |
| O=C(O)c1nn(CC(=O)N2CCC(Cc3ccccc3)CC2)c(=O)c2ccccc12 | -9.21 | – | – |
| Cc1cc(C)c2cc(C#N)c(SCC(=O)NCC3CCCO3)nc2c1 (stereo not drawn) | 6.03 | – | – |
| COc1cc(C=O)ccc1OC(=O)c1cccnc1 | 15.2 | – | – |
| N#Cc1ccc(C23CC4(C2)[C@H](CN(CC2CCCCC2)[C@@H]4c2ccccc2)C3c2ccc(Cl)nc2)cc1 (stereo partly drawn) | 30.8 | 29.1 µM [rising, single point] | – |
| Cc1ccccc1C1CC(c2ccc(F)cc2)Nc2nc(N)nn21 (stereo not drawn) | 0.284 | – | – |
| CCOc1ccc(-c2cccc(NS(=O)(=O)c3ccc([N+](=O)[O-])cc3)c2)nn1 | -75 | 0.82 µM [rising, full curve] | 29.1 µM [falling, single point] |
| CCOc1ccc(S(=O)(=O)NCCC(=O)N2CCN(Cc3ccccc3)CC2)cc1 | – | 6.51 µM [falling, partial curve] | – |
| O=C(Nc1ccc(NC(=O)c2cccs2)cc1)c1ccc2ccccc2c1 | 219 | – | – |
| COc1ccc(OC)c(N(CC(=O)Nc2cccnc2)S(=O)(=O)c2ccccc2)c1 | – | 2.06 µM [rising, partial curve] | 2.06 µM [rising, partial curve] |
| FC(F)Sc1ccc(NC(=S)NC2CCCC2)cc1 | 26.5 | – | – |
| O=C(NNC(=O)c1ccccc1Cl)c1ccco1 | 12.9 | 0.116 µM [falling, full curve, poor fit] | – |
